Results from patent US7268137B2, “Ocular therapy” (priority 2002, dated 2007).
Some results were stated once for a whole list of compounds, not compound by compound.

Tested on: homozygous rho/PDGF-A mice
Test: Retinal detachment in homozygous rho/PDGF-A mice (P50)
Assay type: in vivo
Settings: 50 mg/kg once a day by gavage from P7, P50, vehicle more than 60%
Description: Mice are treated humanely in accordance with Association for Research in Vision and Ophthalmology guidelines for the use of animals in ophthalmic and vision research. Reference to P(x) refers to postnatal day (x). Methods for the generation and characterization of rho/PDGF-A and rho/PDGF-B transgenic mice are known to those of ordinary skill. Hemizygous rho/PDGF-B, line 1 mice in a C57BL/6 background and homozygous rho/PDGF-A, line 2 mice in a C57BL/6 background are each divided into 5 groups and starting on P7 are treated by gavage once a day with vehicle or vehicle containing 50 mg/kg of PKC412, PTK787, SU1498, or Imatinib mesylate. Rho/PDGF-B mice are euthanized at P12 to assess ERM formation by staining with Griffonia simplicifolia lectin (GSA), which selectively stains vascular cells, or at P21 to assess for retinal detachment. […]
To perform quantitative assessments, 10 μm serial sections are cut through an entire eye starting with sections that included the iris root on one side of the eye and proceeding to the iris root on the other side. […] Image-Pro Plus software is used to delineate GSA- or GFAP-stained cells in the retina and their area is measured. […]
For comparisons between vehicle-treated eyes and eyes in the other treatment groups with regard to retinal detachments, data are analyzed using logistic regression with GEE to account for correlation between eyes. […]

Compound: Clc1ccc(Nc2nnc(Cc3ccncc3)c3ccccc23)cc1 [PTK787, 1-(4-Chloroanilino)-4-(4-pyridylmethyl)phthalazine]
- eyes with total retinal detachment: 10-15%
